Reference: article doi:10.1101/2025.08.23.671862
No constants are given. Whether binding was seen depends on the method and setting. Sequences can lack the tags named with a protein.

Molecular target: T1, Tc24-WT_(3CS1) Tag-less (Trypanosoma cruzi), P07749
T1 chain: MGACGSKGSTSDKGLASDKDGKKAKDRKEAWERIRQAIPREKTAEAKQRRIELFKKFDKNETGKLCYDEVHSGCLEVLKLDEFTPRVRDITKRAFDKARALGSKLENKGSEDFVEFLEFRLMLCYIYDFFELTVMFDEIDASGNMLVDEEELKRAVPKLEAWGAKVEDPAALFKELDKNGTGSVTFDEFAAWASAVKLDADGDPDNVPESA
Assay: SEC-MALS
Conditions: remark: other sources report otherwise

B1: Tc24-WT_(3CS1) Tag-less, P07749 1-211 (protein)
chain: MGACGSKGSTSDKGLASDKDGKKAKDRKEAWERIRQAIPREKTAEAKQRRIELFKKFDKNETGKLCYDEVHSGCLEVLKLDEFTPRVRDITKRAFDKARALGSKLENKGSEDFVEFLEFRLMLCYIYDFFELTVMFDEIDASGNMLVDEEELKRAVPKLEAWGAKVEDPAALFKELDKNGTGSVTFDEFAAWASAVKLDADGDPDNVPESA
binding: no binding
